Measurements: article PMC10179296
These are yes or no findings as the source states them, for the method shown. Some binding calls cover weakened binding; strength is not graded here.

The chains behind the UniProt entries cited, without tags or fusion partners. Residues count along the entry.
UniProt Q80YX1, residues 23-2110: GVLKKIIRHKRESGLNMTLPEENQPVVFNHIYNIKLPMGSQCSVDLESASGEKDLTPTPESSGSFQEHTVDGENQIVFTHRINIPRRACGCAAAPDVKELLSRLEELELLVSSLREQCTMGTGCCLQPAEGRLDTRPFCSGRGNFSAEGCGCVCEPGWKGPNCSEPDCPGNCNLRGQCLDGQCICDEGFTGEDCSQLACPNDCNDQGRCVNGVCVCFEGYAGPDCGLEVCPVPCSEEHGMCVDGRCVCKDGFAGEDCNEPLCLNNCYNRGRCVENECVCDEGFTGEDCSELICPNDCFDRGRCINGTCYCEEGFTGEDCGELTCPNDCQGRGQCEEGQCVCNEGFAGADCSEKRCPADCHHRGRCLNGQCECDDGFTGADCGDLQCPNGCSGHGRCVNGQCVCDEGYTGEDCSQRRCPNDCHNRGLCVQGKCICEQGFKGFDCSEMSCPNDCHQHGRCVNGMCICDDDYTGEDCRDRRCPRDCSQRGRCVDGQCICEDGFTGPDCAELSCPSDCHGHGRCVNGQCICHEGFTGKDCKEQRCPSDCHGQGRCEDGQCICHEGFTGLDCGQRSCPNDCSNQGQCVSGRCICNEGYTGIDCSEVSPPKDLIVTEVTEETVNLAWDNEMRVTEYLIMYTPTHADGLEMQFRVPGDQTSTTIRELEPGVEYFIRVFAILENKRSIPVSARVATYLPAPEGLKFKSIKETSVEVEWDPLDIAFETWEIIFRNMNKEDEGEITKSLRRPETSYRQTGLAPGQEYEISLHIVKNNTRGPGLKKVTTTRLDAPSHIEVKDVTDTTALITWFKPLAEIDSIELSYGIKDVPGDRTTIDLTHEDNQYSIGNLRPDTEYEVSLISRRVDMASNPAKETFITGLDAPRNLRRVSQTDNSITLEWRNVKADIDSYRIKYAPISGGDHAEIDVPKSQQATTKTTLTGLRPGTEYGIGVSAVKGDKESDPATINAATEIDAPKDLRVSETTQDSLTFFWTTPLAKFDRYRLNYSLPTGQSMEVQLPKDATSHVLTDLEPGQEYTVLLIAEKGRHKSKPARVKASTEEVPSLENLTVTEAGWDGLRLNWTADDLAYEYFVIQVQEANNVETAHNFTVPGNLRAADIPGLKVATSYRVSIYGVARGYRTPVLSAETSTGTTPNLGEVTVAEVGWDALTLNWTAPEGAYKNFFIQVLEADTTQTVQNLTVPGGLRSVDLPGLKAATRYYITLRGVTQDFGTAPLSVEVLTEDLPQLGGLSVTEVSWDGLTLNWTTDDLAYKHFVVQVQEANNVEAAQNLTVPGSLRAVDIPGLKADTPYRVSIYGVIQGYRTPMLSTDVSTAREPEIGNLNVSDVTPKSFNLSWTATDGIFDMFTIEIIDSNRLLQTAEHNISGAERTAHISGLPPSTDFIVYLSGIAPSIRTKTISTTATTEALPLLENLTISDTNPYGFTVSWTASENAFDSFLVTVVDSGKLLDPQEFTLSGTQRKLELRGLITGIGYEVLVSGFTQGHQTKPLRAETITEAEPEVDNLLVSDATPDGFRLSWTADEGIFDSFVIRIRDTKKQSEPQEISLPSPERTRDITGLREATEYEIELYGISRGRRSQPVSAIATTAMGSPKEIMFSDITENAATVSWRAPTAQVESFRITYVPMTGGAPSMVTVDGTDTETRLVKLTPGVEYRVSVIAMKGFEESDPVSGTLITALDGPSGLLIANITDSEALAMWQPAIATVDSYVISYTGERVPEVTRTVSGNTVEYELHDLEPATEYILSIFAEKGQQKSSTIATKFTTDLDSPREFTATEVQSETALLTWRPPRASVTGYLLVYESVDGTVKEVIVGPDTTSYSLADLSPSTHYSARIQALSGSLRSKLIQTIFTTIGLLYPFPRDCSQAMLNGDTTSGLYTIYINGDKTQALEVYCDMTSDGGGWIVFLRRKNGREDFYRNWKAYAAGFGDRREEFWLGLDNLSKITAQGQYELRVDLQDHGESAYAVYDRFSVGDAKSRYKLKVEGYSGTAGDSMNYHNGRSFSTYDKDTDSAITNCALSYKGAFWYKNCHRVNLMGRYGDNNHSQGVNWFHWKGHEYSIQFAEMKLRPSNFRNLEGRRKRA
UniProt P10148, residues 24-148: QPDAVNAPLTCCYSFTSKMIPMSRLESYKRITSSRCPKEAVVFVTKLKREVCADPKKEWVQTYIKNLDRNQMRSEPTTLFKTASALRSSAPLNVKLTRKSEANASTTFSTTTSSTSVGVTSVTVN

Tests used:
[1] = target: Murine strep-tagged tenascin-C (murine) (UniProt Q80YX1); experiment: negative staining transmission electron microscopy; TNC (20 nmol/L) incubated with a 3 molar excess of CCL2 labelled with 5 nm colloidal gold, 1 h at 37 °C in TBS pH 7.4; gold particles counted along the TNC monomer or hexamer; both purified
[2] = target: Murine strep-tagged tenascin-C (murine) (UniProt Q80YX1); experiment: condition: only TNC pre-incubated with a 100x molar excess of heparin; negative staining transmission electron microscopy; as a2, but TNC pre-incubated with molar excesses of heparin (TNC:heparin = 1:0.1, 1:1, 1:10, 1:100) for 1 h at 37 °C; both purified

Substance: Mouse CCL2 (from UniProt P10148 24-148) (ligand)
- binding [1]: binds
- binding [2]: no binding
